± gives the standard deviation. Only a part is listed here, and it is no random draw. Many of these values have a large error.
Tested on: MILI (PIWIL2) piRISC loaded with L1MC piRNA (26 nt)
Experiment: pre-steady-state target cleavage rate (min^-1); MIWI and MILI are mouse PIWI proteins and EfPiwi is from a freshwater sponge; tags in brackets are library labels; higher = faster piRNA-guided slicing of the target
Details: guide: L1MC piRNA 5'p-UAACUAAAUACUAUGCAAGCUGUAGG; auxiliary factor: 500 nM mouse GTSF1
Experimental: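 Cleave-'n-Seq: a library of target RNAs (target site embedded in constant flanks, ACAGCATTCCGCGTTAGTGATATCCG... 5' flank; DNA-blocked outside the site) at 0.1 nM was incubated with 1 nM active mouse MILI or MIWI piRISC (synthetic 5'-monophosphorylated piRNA guide) with or without 500 nM mouse GTSF1 at 33 °C for 1 min to 16 h. Uncleaved targets were sequenced and normalised to non-target controls, and the pooled three trials were fitted to a burst-and-steady-state model to give the pre-steady-state cleavage rate (min^-1; k3 is constrained to at most 1e-4). Sequence is the target site only; target names encode pairing extent (gX:gY) and contiguous / 1-mismatch / 2-mismatch / bulge geometry. Fits with R² ≤ 0 are excluded.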

| Sequence | pre-steady-state target cleavage rate |
| --- | --- |
| UCCUGCUACGCUUGCAUAGUAUUUAGUUA | 0.291 ± 0.025 |
| UCCUGGAACAGUUGCAUAGUAUUUAGUUA | 0.2 ± 0.014 |
| UCCUGGAUGUCGAACCAUUGAAUUUAGUUA | 0.000343 ± 0.01 |
| UCCUGCUACAGCCUGCAUAGUAUUUAGUUA | 0.279 ± 0.025 |
| UCCUGGAACAGCUAGCAUAGUAAUUAGUUA | 0.155 ± 0.018 |
| UCCUGCAACUGCUUGCAUAGUAUUUAGUUA | 0.322 ± 0.025 |
| UCCUGGAUGUCGUUGCAUACGUAUUUAGUUA | 0.000688 ± 0.015 |
| UCCUGGAACAGCUUCGAUAGUAUUUAGUUA | 0.262 ± 0.015 |
| UCCUGGAUGUGCUUCGUUAGUAUUUAGUAA | 0.00129 ± 0.0081 |
| UCCUGGUUGAGCUUGCAUAGUAUUUAGUAA | 0.196 ± 0.022 |
| UCCUGGAUGUGCUUGCAUAGUAAUUUGUUA | 0.0141 ± 0.0071 |

Same assay, conditions: guide: L1MC piRNA 5'p-UAACUAAAUACUAUGCAAGCUGUAGG; auxiliary factor: none (no GTSF1)

| Sequence | pre-steady-state target cleavage rate |
| --- | --- |
| UCCUGCUACGCUUGCAUAGUAUUUAGUUA | 0.0067 ± 0.0024 |
| UCCUGGAUGUCGAAGCAUACUAUAUAGUUA | 0.000262 ± 0.018 |
| UCCUGGAUGUCGAUGCAUAGUAUUUAGAUA | 0.00124 ± 0.0049 |
| UCCUGGUACAGGAAGCAUAGUAUUUUCAAA | 0.000572 ± 0.01 |
| UCCUGGAACAGUUGCAUAGUAUUUAGUUA | 0.00668 ± 0.0022 |
| UCCUGGAUCAGCUUCCAUUGUAUUUAGUUA | 0.0019 ± 0.0037 |
| UCCUGGAUGUCGAACCAUUGAAUUUAGUUA | 0.000198 ± 0.021 |
| UCCUGGUACACCUUGCAUACUAUUUAGUUA | 0.00346 ± 0.0041 |
| UCCUGCUACAGCCUGCAUAGUAUUUAGUUA | 0.00704 ± 0.0031 |
| UCCUGCUACAGCUUGCAUAGUAUUUAGGUA | 0.00181 ± 0.0043 |
| UCCUCCUACAGGUUCCAUAGUAUUUAGUUA | 0.000936 ± 0.0059 |
| UCCUGGAACAGCUAGCAUAGUAAUUAGUUA | 0.00801 ± 0.0026 |
| UCCUGGAUCAGCUUGCAUAGUUUUUAGAUA | 0.00137 ± 0.0049 |
| UCCUGCAACUGCUUGCAUAGUAUUUAGUUA | 0.00581 ± 0.0026 |
| UCCUGGAUGUCGUUGCAUACGUAUUUAGUUA | 0.00143 ± 0.0053 |
| UCCUGGUACUGCUUGCAUAGUAUUUAGAUA | 0.00261 ± 0.0036 |
| UCCUGGAACACCUUGCAUAGUAUAUAGUUA | 0.00209 ± 0.0029 |
| UCCUGGAACAGCUUCGAUAGUAUUUAGUUA | 0.00483 ± 0.0022 |
| UCCUGGAUCAGCUACGAUAGUAUUUUCAAA | < 0.0001 |
| UCCUGGUACAGCUUGCAUAGUAUUAAGAAA | 0.000901 ± 0.0066 |
| UCCUGGAUGUGCUUCGUUAGUAUUUAGUAA | 0.000865 ± 0.0074 |
| UCCUGGUUGAGCUUGCAUAGUAUUUAGUAA | 0.00595 ± 0.0027 |
| UCCUGCUACAGCUUGCAUAGCUAUUUAGUUA | 0.00143 ± 0.0053 |
| UCCUGGAUGUCCUUGCAUAGAUAAAUCAAA [g11:g19:cont:t1A] | 0.000108 ± 0.034 |
| UCCUGGAUGUCCUUCCAUAGUAUUUUGUUA | 0.000502 ± 0.011 |
| UCCUGGAUGAGCUUGCAUAGUAUAUACAAA | 0.00126 ± 0.0055 |
| UCCUGGAUGUGCUUGCAUAGUAAUUUGUUA | 0.00133 ± 0.0053 |
| UCCUGCUACAGCUUGCAAUCAUAAAUCAAA [g14:g25:cont:t1A] | 0.000277 ± 0.01 |
| UCCUCCUACAGCUUGCAUAUAUUUAGUUA | 0.00198 ± 0.0039 |

— the supplement of paper PMC10338343
